Reference: the supplement of paper PMC10849652
The list shows a part of the results.

Sequences of proteins named here, by UniProt entry; tags and fusion partners are left off. A change or cut given only in a name is not applied to a line headed by its entry.
UniProt Q9Y5U9: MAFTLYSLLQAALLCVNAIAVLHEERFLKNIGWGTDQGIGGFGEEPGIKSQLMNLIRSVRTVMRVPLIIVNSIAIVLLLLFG
UniProt P49441: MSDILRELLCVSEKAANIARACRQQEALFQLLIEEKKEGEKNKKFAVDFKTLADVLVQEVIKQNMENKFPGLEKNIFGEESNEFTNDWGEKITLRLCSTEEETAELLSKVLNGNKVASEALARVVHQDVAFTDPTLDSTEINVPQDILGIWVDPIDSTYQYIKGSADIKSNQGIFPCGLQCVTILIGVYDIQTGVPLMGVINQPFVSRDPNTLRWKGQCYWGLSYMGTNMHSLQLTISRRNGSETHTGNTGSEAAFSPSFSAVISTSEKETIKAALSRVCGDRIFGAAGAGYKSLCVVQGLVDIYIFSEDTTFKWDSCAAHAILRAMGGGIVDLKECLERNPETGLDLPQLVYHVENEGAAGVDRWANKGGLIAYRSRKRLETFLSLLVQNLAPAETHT
UniProt P80217: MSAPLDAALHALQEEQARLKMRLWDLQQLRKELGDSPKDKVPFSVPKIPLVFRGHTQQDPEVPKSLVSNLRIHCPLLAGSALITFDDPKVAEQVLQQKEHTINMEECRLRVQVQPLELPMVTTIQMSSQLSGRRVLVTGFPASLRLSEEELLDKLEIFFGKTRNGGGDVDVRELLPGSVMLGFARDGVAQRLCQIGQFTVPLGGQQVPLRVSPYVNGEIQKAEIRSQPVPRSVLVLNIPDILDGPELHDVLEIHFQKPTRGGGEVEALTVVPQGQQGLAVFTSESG
UniProt P48735: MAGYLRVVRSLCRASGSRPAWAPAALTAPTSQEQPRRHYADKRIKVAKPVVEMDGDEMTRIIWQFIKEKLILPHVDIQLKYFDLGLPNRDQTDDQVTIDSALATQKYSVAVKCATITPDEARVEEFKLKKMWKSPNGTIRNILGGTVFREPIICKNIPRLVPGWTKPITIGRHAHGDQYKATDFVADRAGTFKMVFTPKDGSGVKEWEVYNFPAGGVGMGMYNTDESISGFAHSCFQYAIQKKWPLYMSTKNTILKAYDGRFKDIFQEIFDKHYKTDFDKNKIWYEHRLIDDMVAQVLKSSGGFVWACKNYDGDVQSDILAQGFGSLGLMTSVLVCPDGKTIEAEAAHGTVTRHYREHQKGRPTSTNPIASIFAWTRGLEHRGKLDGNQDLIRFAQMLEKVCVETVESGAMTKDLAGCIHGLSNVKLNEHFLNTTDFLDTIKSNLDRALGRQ
UniProt Q13907: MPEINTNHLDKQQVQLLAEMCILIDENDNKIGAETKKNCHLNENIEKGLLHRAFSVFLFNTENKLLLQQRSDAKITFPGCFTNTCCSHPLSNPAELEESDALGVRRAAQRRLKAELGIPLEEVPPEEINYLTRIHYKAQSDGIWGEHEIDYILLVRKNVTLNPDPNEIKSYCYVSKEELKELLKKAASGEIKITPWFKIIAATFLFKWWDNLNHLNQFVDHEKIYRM
UniProt O43719: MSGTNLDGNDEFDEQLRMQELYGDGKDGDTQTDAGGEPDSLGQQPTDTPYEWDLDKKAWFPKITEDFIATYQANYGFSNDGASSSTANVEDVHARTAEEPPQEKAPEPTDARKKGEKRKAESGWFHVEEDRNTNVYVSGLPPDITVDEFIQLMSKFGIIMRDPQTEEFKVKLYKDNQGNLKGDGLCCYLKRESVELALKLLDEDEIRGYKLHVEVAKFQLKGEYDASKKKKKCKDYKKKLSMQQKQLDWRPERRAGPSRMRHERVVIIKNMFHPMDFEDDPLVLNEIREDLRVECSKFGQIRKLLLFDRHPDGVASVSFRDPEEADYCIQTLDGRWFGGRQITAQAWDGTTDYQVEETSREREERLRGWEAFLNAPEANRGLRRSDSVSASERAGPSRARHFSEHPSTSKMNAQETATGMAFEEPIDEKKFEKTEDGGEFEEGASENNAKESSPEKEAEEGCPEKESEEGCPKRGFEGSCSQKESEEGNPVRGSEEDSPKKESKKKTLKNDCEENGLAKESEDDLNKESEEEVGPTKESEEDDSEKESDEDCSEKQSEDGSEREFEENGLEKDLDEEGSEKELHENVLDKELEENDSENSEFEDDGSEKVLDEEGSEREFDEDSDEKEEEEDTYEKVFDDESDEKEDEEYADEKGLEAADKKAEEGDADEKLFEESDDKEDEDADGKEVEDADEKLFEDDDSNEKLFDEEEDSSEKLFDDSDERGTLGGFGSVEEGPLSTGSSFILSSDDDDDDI
UniProt A1L0T0: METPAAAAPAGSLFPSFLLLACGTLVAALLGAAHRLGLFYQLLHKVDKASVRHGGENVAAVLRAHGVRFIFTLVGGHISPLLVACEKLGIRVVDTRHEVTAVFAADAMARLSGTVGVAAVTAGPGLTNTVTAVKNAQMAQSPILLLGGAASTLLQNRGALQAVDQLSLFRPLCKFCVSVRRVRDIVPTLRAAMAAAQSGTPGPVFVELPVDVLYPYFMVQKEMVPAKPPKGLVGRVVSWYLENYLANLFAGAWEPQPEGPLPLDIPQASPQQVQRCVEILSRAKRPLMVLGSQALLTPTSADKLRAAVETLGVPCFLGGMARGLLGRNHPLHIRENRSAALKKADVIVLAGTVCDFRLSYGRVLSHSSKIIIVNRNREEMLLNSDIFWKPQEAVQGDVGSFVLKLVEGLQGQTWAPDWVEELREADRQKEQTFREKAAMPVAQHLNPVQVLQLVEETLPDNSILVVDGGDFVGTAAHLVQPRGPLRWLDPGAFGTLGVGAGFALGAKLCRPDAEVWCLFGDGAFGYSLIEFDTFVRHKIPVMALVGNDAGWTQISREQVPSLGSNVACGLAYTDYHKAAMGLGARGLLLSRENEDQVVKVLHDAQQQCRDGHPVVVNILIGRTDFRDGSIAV
UniProt Q8N201, whole entry, looked up: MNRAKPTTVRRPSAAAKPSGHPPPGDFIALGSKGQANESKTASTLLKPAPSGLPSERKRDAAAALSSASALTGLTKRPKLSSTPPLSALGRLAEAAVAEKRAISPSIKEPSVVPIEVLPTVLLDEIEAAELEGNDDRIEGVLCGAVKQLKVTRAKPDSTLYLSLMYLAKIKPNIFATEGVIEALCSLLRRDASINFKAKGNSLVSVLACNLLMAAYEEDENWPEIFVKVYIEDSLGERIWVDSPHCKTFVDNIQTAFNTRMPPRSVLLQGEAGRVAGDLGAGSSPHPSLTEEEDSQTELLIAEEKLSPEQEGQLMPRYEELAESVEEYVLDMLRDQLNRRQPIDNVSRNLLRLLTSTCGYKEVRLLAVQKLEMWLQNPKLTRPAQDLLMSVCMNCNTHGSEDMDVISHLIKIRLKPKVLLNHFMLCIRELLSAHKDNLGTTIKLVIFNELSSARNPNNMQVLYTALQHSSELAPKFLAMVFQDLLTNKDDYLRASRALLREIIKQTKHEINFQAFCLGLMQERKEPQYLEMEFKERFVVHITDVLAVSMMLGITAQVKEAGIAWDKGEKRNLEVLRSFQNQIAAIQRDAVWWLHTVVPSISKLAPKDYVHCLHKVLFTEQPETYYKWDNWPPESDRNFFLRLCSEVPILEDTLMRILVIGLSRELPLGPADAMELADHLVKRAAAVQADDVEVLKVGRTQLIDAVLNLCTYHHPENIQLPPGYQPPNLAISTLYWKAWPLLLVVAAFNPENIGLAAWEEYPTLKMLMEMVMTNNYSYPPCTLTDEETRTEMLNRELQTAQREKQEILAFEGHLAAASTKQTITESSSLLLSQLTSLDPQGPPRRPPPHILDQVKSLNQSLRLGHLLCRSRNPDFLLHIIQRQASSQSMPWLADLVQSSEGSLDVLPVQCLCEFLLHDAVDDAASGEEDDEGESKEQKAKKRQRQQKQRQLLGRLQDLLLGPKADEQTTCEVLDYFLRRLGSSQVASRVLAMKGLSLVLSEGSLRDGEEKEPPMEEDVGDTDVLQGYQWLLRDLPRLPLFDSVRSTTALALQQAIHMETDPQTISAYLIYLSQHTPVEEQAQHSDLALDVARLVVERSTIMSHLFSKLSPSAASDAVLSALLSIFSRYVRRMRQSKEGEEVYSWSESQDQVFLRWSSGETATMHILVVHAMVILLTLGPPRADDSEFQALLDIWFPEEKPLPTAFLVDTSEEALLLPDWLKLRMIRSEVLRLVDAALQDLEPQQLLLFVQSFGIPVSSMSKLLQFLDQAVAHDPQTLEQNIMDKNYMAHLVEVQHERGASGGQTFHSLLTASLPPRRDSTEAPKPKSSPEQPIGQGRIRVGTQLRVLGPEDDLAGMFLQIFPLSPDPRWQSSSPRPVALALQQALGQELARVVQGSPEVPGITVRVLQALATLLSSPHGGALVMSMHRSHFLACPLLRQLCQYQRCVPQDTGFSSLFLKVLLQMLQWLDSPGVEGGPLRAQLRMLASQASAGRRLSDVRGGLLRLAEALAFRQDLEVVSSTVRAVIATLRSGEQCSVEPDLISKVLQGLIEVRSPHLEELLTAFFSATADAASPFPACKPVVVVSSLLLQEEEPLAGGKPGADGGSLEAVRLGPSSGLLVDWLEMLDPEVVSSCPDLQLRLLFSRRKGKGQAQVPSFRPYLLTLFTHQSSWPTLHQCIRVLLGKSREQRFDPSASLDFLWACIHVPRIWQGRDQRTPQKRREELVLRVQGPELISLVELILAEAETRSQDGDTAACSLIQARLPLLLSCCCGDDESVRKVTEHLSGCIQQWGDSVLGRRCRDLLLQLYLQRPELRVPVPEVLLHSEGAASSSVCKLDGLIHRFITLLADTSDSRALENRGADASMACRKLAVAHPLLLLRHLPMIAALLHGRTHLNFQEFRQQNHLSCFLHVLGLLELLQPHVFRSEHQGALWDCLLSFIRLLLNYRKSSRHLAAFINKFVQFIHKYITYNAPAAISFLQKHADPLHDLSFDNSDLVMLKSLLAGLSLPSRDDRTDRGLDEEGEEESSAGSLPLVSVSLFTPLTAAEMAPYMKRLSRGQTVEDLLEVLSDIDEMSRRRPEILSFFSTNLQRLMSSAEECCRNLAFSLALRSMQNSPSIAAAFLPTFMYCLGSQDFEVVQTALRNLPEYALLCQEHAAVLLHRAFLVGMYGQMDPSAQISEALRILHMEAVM
UniProt Q96LB3: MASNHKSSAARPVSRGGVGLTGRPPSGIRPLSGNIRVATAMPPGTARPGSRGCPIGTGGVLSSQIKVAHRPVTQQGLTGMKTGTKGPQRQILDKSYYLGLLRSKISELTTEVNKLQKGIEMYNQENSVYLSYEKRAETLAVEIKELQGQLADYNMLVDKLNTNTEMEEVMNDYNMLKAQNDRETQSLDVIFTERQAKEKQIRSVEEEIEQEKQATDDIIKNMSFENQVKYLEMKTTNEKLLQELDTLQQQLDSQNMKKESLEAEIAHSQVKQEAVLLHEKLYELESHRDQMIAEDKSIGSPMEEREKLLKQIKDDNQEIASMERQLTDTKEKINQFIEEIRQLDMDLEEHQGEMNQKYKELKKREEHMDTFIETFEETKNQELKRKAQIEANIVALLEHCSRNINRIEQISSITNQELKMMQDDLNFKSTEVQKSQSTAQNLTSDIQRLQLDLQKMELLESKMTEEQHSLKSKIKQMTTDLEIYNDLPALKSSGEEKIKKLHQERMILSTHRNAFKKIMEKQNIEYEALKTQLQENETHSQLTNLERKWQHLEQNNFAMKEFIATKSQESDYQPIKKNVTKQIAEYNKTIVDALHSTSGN
UniProt P41134: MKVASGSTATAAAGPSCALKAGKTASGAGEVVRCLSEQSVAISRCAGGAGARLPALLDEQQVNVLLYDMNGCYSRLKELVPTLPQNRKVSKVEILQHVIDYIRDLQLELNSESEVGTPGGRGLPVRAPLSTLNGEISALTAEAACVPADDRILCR
UniProt Q16666: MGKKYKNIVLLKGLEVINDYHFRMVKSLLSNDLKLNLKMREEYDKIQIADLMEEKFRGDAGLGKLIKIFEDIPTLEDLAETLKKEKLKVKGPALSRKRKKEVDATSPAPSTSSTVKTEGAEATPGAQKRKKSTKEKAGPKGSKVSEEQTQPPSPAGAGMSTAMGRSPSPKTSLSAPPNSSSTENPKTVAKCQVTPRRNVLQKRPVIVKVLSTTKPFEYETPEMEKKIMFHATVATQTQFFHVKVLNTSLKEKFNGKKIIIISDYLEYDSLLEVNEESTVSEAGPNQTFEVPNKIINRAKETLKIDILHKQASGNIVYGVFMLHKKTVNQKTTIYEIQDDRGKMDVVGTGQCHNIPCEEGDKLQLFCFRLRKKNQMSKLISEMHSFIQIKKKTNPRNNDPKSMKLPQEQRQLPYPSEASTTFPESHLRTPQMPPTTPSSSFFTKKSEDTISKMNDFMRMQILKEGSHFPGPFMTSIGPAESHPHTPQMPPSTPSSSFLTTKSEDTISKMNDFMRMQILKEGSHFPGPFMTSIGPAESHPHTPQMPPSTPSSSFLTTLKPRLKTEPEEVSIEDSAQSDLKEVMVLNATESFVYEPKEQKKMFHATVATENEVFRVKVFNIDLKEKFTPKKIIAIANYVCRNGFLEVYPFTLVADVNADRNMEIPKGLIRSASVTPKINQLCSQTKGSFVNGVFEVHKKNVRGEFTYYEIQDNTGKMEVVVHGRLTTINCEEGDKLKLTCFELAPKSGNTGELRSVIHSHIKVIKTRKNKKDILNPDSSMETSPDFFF

Columns and labels:
Assay in all cases: log2 fold change, soluble protein after heating vs DMSO (PISA); higher = thermal stabilisation; K562 lysate, 10 uM; active = over 0.2 and 3.5 SD of the protein, either way, in both replicates (recomputed)
erlotinib = compound: C#Cc1cccc(Nc2ncnc3cc(OCCOC)c(OCCOC)cc23)c1 [erlotinib]
Summary of the method: (§1)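 Pellets of K562 cells were dounce-homogenised in PBS pH 7.4 with 1 mM MgCl2, and the crude extract was held at 1 mg/mL protein for a 30 min treatment with 10 μM compound. Aliquots were heated for 3 min over 48°C-58°C and pooled before NP-40 was added to 0.5% at 4°C. The supernatant from 21,000xg for 90 min was quantified by TMTpro 16plex LC-MS/MS with channel sums equalised. Values are reported from duplicates as log-two fold change in thermal stability relative to solvent controls.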

[1] = compound: C/C(=N\NC(=O)C1=CC(=CC=C1)S(=O)(=O)N2CCOCC2)/C3=C(C=CC(=C3)Cl)O
Summary of the method: as §1

[2] = compound: C1=CC(=CC=C1C2=NC3=C(N2)C=C(C=C3)C(=O)N)OC4=CC=C(C=C4)Cl
Summary of the method: as §1

[3] = compound: C1=CC2=C(C=CC(=C2)/C=C\3/C(=O)NC(=NCC4=CC=CS4)S3)N=C1
Summary of the method: as §1

[4] = compound: C1=CC2=NC=CN=C2C=C1/C=C/3\C(=O)NC(=O)S3
Summary of the method: as §1

[5] = compound: C1=CC=C(C=C1)C2=NC(=C(N2)C3=CC=NC=C3)C4=CC(=C(C=C4)Cl)O
Summary of the method: as §1

[6] = compound: C1=CC=C2C(=C1)C3=NNC4=CC=CC(=C43)C2=O
Summary of the method: as §1

[7] = compound: C1CCN(C1)C(=O)NC2=CC=CC(=C2)NC3=NC=C(C(=N3)NCCC4=CN=CN4)Br
Summary of the method: as §1

[8] = compound: C1CN(CCC1(CC2=CC=C(C=C2)Cl)N)C3=NC=NC4=C3C=CN4
Summary of the method: as §1

IRAK-1-4 Inhibitor I = compound: C1COCCN1CCN2C3=CC=CC=C3N=C2NC(=O)C4=CC(=CC=C4)[N+](=O)[O-] [IRAK-1-4 Inhibitor I]
Summary of the method: as §1

Measured: log2 fold change

IFT20 isoform 2 (UniProt Q8IY31)
inactive: erlotinib 0.057 | [1] -0.067 | [2] 0.038 | [3] 0.005 | [4] 0.035 | [5] -0.048 | [6] -0.027 | [7] 0.069 | [8] 0.025 | IRAK-1-4 Inhibitor I 0.023

IER3IP1 (UniProt Q9Y5U9)
inactive: erlotinib 0.035 | [1] -0.149 | [2] 0.077 | [3] 0.047 | [4] 0.075 | [5] -0.181 | [6] -0.112 | [7] 0.198 | [8] 0.042 | IRAK-1-4 Inhibitor I -0.037

IGF2R (UniProt P11717)
inactive: erlotinib -0.026 | [1] -0.009 | [2] 0.022 | [3] 0.019 | [4] -0.025 | [5] 0.021 | [6] -0.007 | [7] 0.003 | [8] -0.002 | IRAK-1-4 Inhibitor I 0.011

INPP1 (UniProt P49441)
inactive: erlotinib -0.03 | [1] -0.045 | [2] -0.018 | [3] 0.049 | [4] 0.053 | [5] 0.007 | [6] -0.088 | [7] 0.028 | [8] 0.02 | IRAK-1-4 Inhibitor I -0.021

IFI35 isoform 2 (UniProt P80217)
inactive: erlotinib -0.009 | [1] -0.009 | [2] 0.023 | [3] -0.017 | [4] -0.014 | [5] -0.022 | [6] 0.016 | [7] 0.007 | [8] 0.017 | IRAK-1-4 Inhibitor I 0.026

Reprinted at random: 2 records from the list, in no set order.
INPP1 (UniProt P49441)
inactive: erlotinib -0.03 | [1] -0.045 | [2] -0.018 | [3] 0.049 | [4] 0.053 | [5] 0.007 | [6] -0.088 | [7] 0.028 | [8] 0.02 | IRAK-1-4 Inhibitor I -0.021

IER3IP1 (UniProt Q9Y5U9)
inactive: erlotinib 0.035 | [1] -0.149 | [2] 0.077 | [3] 0.047 | [4] 0.075 | [5] -0.181 | [6] -0.112 | [7] 0.198 | [8] 0.042 | IRAK-1-4 Inhibitor I -0.037

Later entries.

IDH2 (UniProt P48735)
inactive: erlotinib 0.016 | [1] 0.013 | [2] -0.032 | [3] 0.017 | [4] 0.029 | [5] 0.062 | [6] -0.08 | [7] -0.017 | [8] 0.027 | IRAK-1-4 Inhibitor I 0.031

IDI1 (UniProt Q13907)
inactive: erlotinib -0.003 | [1] -0.004 | [2] 0.006 | [3] 0.007 | [4] 0.007 | [5] 0.032 | [6] 0.017 | [7] -0.029 | [8] 0.024 | IRAK-1-4 Inhibitor I 0.004

ICAM2 (UniProt P13598)
inactive: erlotinib 0.004 | [1] -0.022 | [2] 0.023 | [3] -0.029 | [4] -0.01 | [5] -0.011 | [6] 0.021 | [7] 0.032 | [8] 0.005 | IRAK-1-4 Inhibitor I 0.061

IKZF1 (UniProt Q13422)
inactive: erlotinib -0.06 | [1] 0.084 | [2] -0.018 | [3] -0.093 | [4] 0.021 | [5] 0.03 | [6] 0.112 | [7] 0.045 | [8] -0.031 | IRAK-1-4 Inhibitor I 0.028

INTS10 (UniProt Q9NVR2)
inactive: erlotinib 0.008 | [1] 0.056 | [2] -0.001 | [3] 0.061 | [4] -0.044 | [5] 0.026 | [6] -0.061 | [7] -0.006 | [8] 0.044 | IRAK-1-4 Inhibitor I -0.004

IKBIP isoform 4 (UniProt Q70UQ0)
inactive: erlotinib -0.008 | [1] 0.01 | [2] 0 | [3] 0.026 | [4] -0.02 | [5] 0 | [6] -0.032 | [7] 0.02 | [8] 0.016 | IRAK-1-4 Inhibitor I 0.014

IKBIP (UniProt Q70UQ0)
inactive: erlotinib -0.004 | [1] 0.077 | [2] 0.002 | [3] -0.012 | [4] -0.028 | [5] -0.029 | [6] 0.005 | [7] -0.001 | [8] 0.006 | IRAK-1-4 Inhibitor I 0.037

HTATSF1 (UniProt O43719)
inactive: erlotinib -0.023 | [1] -0.017 | [2] 0.028 | [3] 0.014 | [4] -0.022 | [5] -0.014 | [6] -0.027 | [7] -0.015 | [8] 0.007 | IRAK-1-4 Inhibitor I -0.016

ILVBL (UniProt A1L0T0)
inactive: erlotinib 0 | [1] -0.054 | [2] 0.112 | [3] -0.03 | [4] -0.041 | [5] -0.013 | [6] -0.022 | [7] -0.035 | [8] 0.062 | IRAK-1-4 Inhibitor I 0.098

IDE, A0A3B3ISG5
inactive: erlotinib -0.013 | [1] -0.008 | [2] 0.015 | [3] -0.001 | [4] 0.001 | [5] 0.003 | [6] 0.001 | [7] 0.005 | [8] -0.009 | IRAK-1-4 Inhibitor I -0.004

INTS1 (UniProt Q8N201)
inactive: erlotinib 0.016 | [1] 0.063 | [2] 0.013 | [3] -0.071 | [4] -0.017 | [5] 0.027 | [6] -0.097 | [7] -0.01 | [8] 0.025 | IRAK-1-4 Inhibitor I 0.016

IFT74 (UniProt Q96LB3)
inactive: erlotinib 0.038 | [1] 0.026 | [2] 0.107 | [3] -0.067 | [4] -0.037 | [5] -0.014 | [6] -0.032 | [7] -0.013 | [8] 0.027 | IRAK-1-4 Inhibitor I 0.086

IGLC3 (UniProt P0DOY3)
inactive: erlotinib -0.225 | [2] -0.208 | [4] 0.01

HSPA8 (UniProt E9PN89)
inactive: erlotinib 0.02 | [2] -0.004 | [4] -0.095 | [5] 0.082 | [7] -0.045 | [8] -0.043 | IRAK-1-4 Inhibitor I -0.055

IMPA2 (UniProt O14732)
inactive: erlotinib -0.052 | [1] 0.017 | [2] -0.062 | [3] -0.051 | [4] 0.022 | [5] 0.033 | [6] -0.05 | [7] 0.005 | [8] -0.036 | IRAK-1-4 Inhibitor I 0.024

IGLL5 (UniProt B9A064)
inactive: erlotinib -0.137 | [1] 1.07 | [2] -0.133 | [3] -0.4 | [5] 0.503 | [6] -0.211 | [7] 0.072 | [8] -0.271 | IRAK-1-4 Inhibitor I -0.236

ID1 (UniProt P41134)
inactive: erlotinib -0.081 | [1] 0.032 | [2] 0.075 | [3] -0.034 | [4] -0.247 | [5] -0.041 | [6] 0.029 | IRAK-1-4 Inhibitor I 0.076

IFI16 (UniProt Q16666)
inactive: erlotinib 0.081 | [2] -0.037

INPP4A (UniProt Q96PE3)
inactive: erlotinib 0.002 | [1] 0.007 | [2] 0.017 | [3] -0.005 | [4] -0.023 | [5] 0.099 | [6] 0.069 | [7] -0.018 | [8] -0.051 | IRAK-1-4 Inhibitor I 0.066

IGHG1 (UniProt P01857)
inactive: erlotinib -0.05 | [1] 0.364 | [2] -0.293 | [3] 0.093 | [4] 0.562 | [5] 0.8 | [6] 0.013 | IRAK-1-4 Inhibitor I -0.264
